Reference: publication doi:10.1101/2021.04.24.441265
For at least one entry, the source does not settle the construct or the ends of the probe. At least one result comes from cells or an extract, where the contact may be indirect.

By UniProt entry, the sequences of proteins in these tests, tags left out. Where a name states a change or a piece, a line headed by the entry shows the natural chain unless it says otherwise.
UniProt P28033: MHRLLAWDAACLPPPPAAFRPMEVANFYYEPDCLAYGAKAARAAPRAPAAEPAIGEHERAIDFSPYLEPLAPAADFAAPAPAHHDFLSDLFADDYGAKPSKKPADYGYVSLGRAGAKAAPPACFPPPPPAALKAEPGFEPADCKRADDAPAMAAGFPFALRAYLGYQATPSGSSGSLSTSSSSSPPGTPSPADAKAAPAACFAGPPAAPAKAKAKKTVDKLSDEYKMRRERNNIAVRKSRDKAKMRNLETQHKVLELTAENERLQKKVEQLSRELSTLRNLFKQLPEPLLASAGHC

Key:
Test in all cases: EMSA supershift
[1] = target: C/EBPβ (BMDM nuclear extract) (mouse (primary BMDM)) (UniProt P28033); conditions: LPS-stimulated extract; protein in an extract
[2] = target: C/EBPβ (RAW264.7 nuclear extract) (mouse (RAW264.7 macrophages)) (UniProt P28033); conditions: LPS-stimulated extract; protein in an extract
[3] = target: C/EBPδ (BMDM nuclear extract) (mouse (primary BMDM)) (UniProt Q00322); conditions: LPS-stimulated extract, minor extent; protein in an extract
[4] = target: C/EBPδ (RAW264.7 nuclear extract) (mouse (RAW264.7 macrophages)) (UniProt Q00322); conditions: LPS-stimulated extract, present to a certain extent; protein in an extract

Measured: binding result

TCAGGTACTTCATCTTACGTCACCTAGT / TCAGACTAGGTGACGTAAGATGAAGTAC [half-CRE•C/EBP_Il36A EMSA probe, unmethylated]
binds: all assays above
